{"source": "PubChem BioAssay AID248", "about": "(DTP/NCI, 2004)", "tested_on": "L1210 leukemia ip in BDF1 mice, survival T/C", "assay": "NCI In Vivo Anticancer Drug Screen. Data for tumor model L1210 Leukemia (intraperitoneal) in B6D2F1 (BDF1) mice", "conditions": "T/C endpoint: mean survival time, higher T/C = longer survival", "key": {"[1]": {"conditions": "dose: 50.0 mg/kg/injection, schedule: Q01DX009 (ip), vehicle: Klucel (hydroxypropylcellulose) (HPC)"}, "[2]": {"conditions": "dose: 400.0 mg/kg/injection, schedule: Q01DX009 (ip), vehicle: Klucel (hydroxypropylcellulose) (HPC)"}, "[3]": {"conditions": "dose: 100.0 mg/kg/injection, schedule: Q01DX009 (ip), vehicle: Klucel (hydroxypropylcellulose) (HPC)"}, "[4]": {"conditions": "dose: 400.0 mg/kg/injection, schedule: Q04DX003 (ip), vehicle: saline with Tween-80"}, "[5]": {"conditions": "dose: 200.0 mg/kg/injection, schedule: Q04DX002 (ip), vehicle: other"}, "[6]": {"conditions": "dose: 400.0 mg/kg/injection, schedule: Q04DX002 (ip), vehicle: other"}}, "note": "The list shows only some results of the screen, not a fair sample: it is rich in T/C values a quarter to a half above the control, in often repeated tests (any T/C) and in doses without a T/C. Other doses and runs of a compound stand elsewhere. T/C is the treated group as % of the vehicle group. Some doses have a count of surviving animals in place of a T/C: the source holds a T/C of zero for them, seemingly a mark for toxic or unscored doses. Some survivor counts are full or nearly so, which does not show that the dose was tolerated: survival well below the control is almost never listed, so the zero probably covers shortened survival too. Survivors were counted at the toxicity check, usually on the fifth day, unless a day is given; later deaths do not show. Schedules are NCI's codes, read here as Q, the interval in days (D) or hours (H), X, the number of doses. Some entries hold several experiments; the values are given in rising order. Some schedule codes hold Z or #, which are not explained here. Where survival is the endpoint, the PubChem record calls one and a half times the control and up active, and a quarter to a half above the control has no call in these data; cut-offs in other NCI protocols can differ. Some T/C values are followed by the survivors on the day toxicity was checked, most often the fifth; without a count, all were alive then. Additions like (4×) count equal records among those shown."}
{"smiles": "O=C(NC(C(=O)SC1=NC=NC2=NC=NC21)C(SC1=NC=NC2=NC=NC21)c1cccnc1)c1ccccc1", "note": "(centres undefined)", "values": [{"measurement": "T/C", "setting": "dose: 11.0 mg/kg/injection, schedule: Q01DX Z (ip), vehicle: saline", "result": "143 % of control"}, {"measurement": "T/C", "setting": "dose: 17.0 mg/kg/injection, schedule: Q01DX Z (ip), vehicle: saline", "result": "134 % of control"}, {"measurement": "T/C", "setting": "dose: 25.0 mg/kg/injection, schedule: Q01DX Z (ip), vehicle: saline", "result": "148 % of control"}]}
{"smiles": "c1cc[c]([GeH]([c]2ccccc2)[c]2ccccc2)cc1", "values": [{"measurement": "survivor count", "setting": "dose: 25.6 mg/kg/injection, schedule: Q04DX002 (ip), vehicle: saline with Tween-80", "result": "3 of 3"}]}
{"smiles": "Cn1cnc([N+](=O)[O-])c1S(=O)(=O)NCN1CCOCC1", "values": [{"measurement": "survivor count", "setting": "dose: 12.5 mg/kg/injection, schedule: Q01DX009 (ip), vehicle: Klucel (hydroxypropylcellulose) (HPC)", "result": "6 of 6"}, {"measurement": "T/C", "setting": "[1]", "result": "130 % of control"}, {"measurement": "survivor count", "setting": "[2]", "result": "2 of 6"}]}
{"smiles": "O=C(O)C1CC1(Br)Br", "note": "(centres undefined)", "values": [{"measurement": "survivor count", "setting": "dose: 200.0 mg/kg/injection, schedule: Q04DX003 (ip), vehicle: acetone", "result": "0 of 6"}, {"measurement": "survivor count", "setting": "dose: 400.0 mg/kg/injection, schedule: Q04DX003 (ip), vehicle: acetone", "result": "0 of 6"}]}
{"smiles": "CCOP(OCC)SSCn1nc2ccc3ccccc3n2c1=O", "values": [{"measurement": "survivor count", "setting": "[3]", "result": "2 of 3"}, {"measurement": "survivor count", "setting": "dose: 200.0 mg/kg/injection, schedule: Q01DX009 (ip), vehicle: Klucel (hydroxypropylcellulose) (HPC)", "result": "2 of 3"}]}
{"smiles": "CC(=O)Oc1cc(C)c(OC(C)=O)c2ccccc12", "values": [{"measurement": "survivor count", "setting": "[2]", "result": "2 of 6"}]}
{"smiles": "N=C([Se])c1cn(C2OC(CO)C(O)C2O)c2ncnc(N)c12", "note": "(centres undefined)", "values": [{"measurement": "survivor count", "setting": "dose: 1.56 mg/kg/injection, schedule: Q01DX005 (ip), vehicle: saline", "result": "6 of 6"}, {"measurement": "survivor count", "setting": "dose: 3.12 mg/kg/injection, schedule: Q01DX005 (ip), vehicle: saline", "result": "2 of 6"}, {"measurement": "survivor count", "setting": "dose: 6.25 mg/kg/injection, schedule: Q01DX005 (ip), vehicle: saline", "result": "2 of 6"}, {"measurement": "survivor count", "setting": "dose: 12.5 mg/kg/injection, schedule: Q01DX005 (ip), vehicle: saline", "result": "0 of 6"}, {"measurement": "survivor count", "setting": "dose: 25.0 mg/kg/injection, schedule: Q01DX005 (ip), vehicle: saline", "result": "0 of 6"}, {"measurement": "survivor count", "setting": "dose: 50.0 mg/kg/injection, schedule: Q01DX005 (ip), vehicle: saline", "result": "0 of 6"}, {"measurement": "survivor count", "setting": "dose: 100.0 mg/kg/injection, schedule: Q01DX005 (ip), vehicle: saline", "result": "0 of 6"}, {"measurement": "survivor count", "setting": "dose: 200.0 mg/kg/injection, schedule: Q01DX005 (ip), vehicle: saline", "result": "0 of 6"}]}
{"smiles": "COc1cc2c(cc1OC)C(CCN1C(=O)CCC1=O)NCC2", "note": "(centres undefined)", "values": [{"measurement": "survivor count", "setting": "dose: 400.0 mg/kg/injection, schedule: Q01DX009 (ip), vehicle: saline with Tween-80", "result": "3 of 6"}]}
{"smiles": "COc1ccc(OC(=O)Nc2cc([N+](=O)[O-])ccc2OC)cc1", "values": [{"measurement": "survivor count", "setting": "[1]", "result": "3 of 3"}, {"measurement": "survivor count", "setting": "[3]", "result": "3 of 3"}]}
{"smiles": "Cc1nc(C)c(Br)s1", "values": [{"measurement": "survivor count", "setting": "[4]", "result": "6 of 6"}]}
{"smiles": "CN(C(=O)N(CCCl)N=O)C1CCC(C(=O)O)CC1", "note": "(centres undefined)", "values": [{"measurement": "T/C", "setting": "dose: 90.0 mg/kg/injection, schedule: Q01DX009 (ip), vehicle: alkali diluted with saline", "result": "143 % of control"}, {"measurement": "T/C", "setting": "dose: 268.0 mg/kg/injection, schedule: Q01DX001 (ip), vehicle: saline + Tween-80 + alkali", "result": "139 % of control"}]}
{"smiles": "CC1CCC2(C)CCC3(C)C(=CCC4C5(C)CCC(OC(=O)c6ccccc6)C(C)(C)C5CCC43C)C2C1C", "note": "(centres undefined)", "values": [{"measurement": "survivor count", "setting": "dose: 400.0 mg/kg/injection, schedule: Q01DX001 (ip), vehicle: saline with Tween-80", "result": "6 of 6"}]}
{"smiles": "Cc1ccc(NC(=O)c2cccc(C(=O)Nc3ccc(C)cc3C)c2)c(C)c1", "values": [{"measurement": "survivor count", "setting": "dose: 100.0 mg/kg/injection, schedule: Q04DX003 (ip), vehicle: saline with Tween-80", "result": "6 of 6"}, {"measurement": "survivor count", "setting": "[4]", "result": "6 of 6"}]}
{"smiles": "Cc1ccc(NC(=S)NC(=O)COc2ccccc2)cc1C", "values": [{"measurement": "T/C", "setting": "dose: 100.0 mg/kg/injection, schedule: Q04DX002 (ip), vehicle: other", "result": "98 (2×), 109, 116 % of control"}, {"measurement": "T/C", "setting": "[5]", "result": "90, 106, 118 % of control [5 of 6 alive]"}, {"measurement": "survivor count", "setting": "[5]", "result": "3 of 3"}, {"measurement": "survivor count", "setting": "dose: 200.0 mg/kg/injection, schedule: Q04DX003 (ip), vehicle: other", "result": "3 of 6"}, {"measurement": "survivor count", "setting": "dose: 400.0 mg/kg/injection, schedule: Q01DX001 (ip), vehicle: other", "result": "0 of 6"}, {"measurement": "T/C", "setting": "[6]", "result": "92 % of control [2 of 3 alive]"}, {"measurement": "survivor count", "setting": "[6]", "result": "1 of 3 and 3 of 6"}]}
{"smiles": "C=C1C(=O)O[C@@H]2/C=C(/C)[C@@]3(O)C=C[C@](C)(C[C@@H](OC(=O)/C(=C\\C)COC(C)=O)[C@@H]12)O3", "values": [{"measurement": "survivor count", "setting": "dose: 0.12 mg/kg/injection, schedule: Q01DX009 (ip), vehicle: carboxymethylcellulose (CMC)", "result": "4 of 6"}, {"measurement": "survivor count", "setting": "dose: 0.25 mg/kg/injection, schedule: Q01DX009 (ip), vehicle: carboxymethylcellulose (CMC)", "result": "3 of 6"}, {"measurement": "survivor count", "setting": "dose: 0.5 mg/kg/injection, schedule: Q01DX009 (ip), vehicle: carboxymethylcellulose (CMC)", "result": "3 of 6"}, {"measurement": "survivor count", "setting": "dose: 1.0 mg/kg/injection, schedule: Q01DX009 (ip), vehicle: carboxymethylcellulose (CMC)", "result": "2 of 6 and 3 of 6"}, {"measurement": "survivor count", "setting": "dose: 2.0 mg/kg/injection, schedule: Q01DX009 (ip), vehicle: carboxymethylcellulose (CMC)", "result": "3 of 6"}, {"measurement": "survivor count", "setting": "dose: 4.0 mg/kg/injection, schedule: Q01DX009 (ip), vehicle: carboxymethylcellulose (CMC)", "result": "1 of 6"}, {"measurement": "survivor count", "setting": "dose: 8.0 mg/kg/injection, schedule: Q01DX009 (ip), vehicle: carboxymethylcellulose (CMC)", "result": "1 of 6"}]}
{"smiles": "CCCCCCCCCCCCCCC(=O)[O][Hg][c]1ccccc1", "values": [{"measurement": "survivor count", "setting": "dose: 150.0 mg/kg/injection, schedule: Q01DX001 (ip), vehicle: steroid suspending solution", "result": "1 of 6"}, {"measurement": "survivor count", "setting": "dose: 300.0 mg/kg/injection, schedule: Q01DX001 (ip), vehicle: steroid suspending solution", "result": "0 of 6"}]}
{"smiles": "CC(=O)NCCSC(=O)C(=O)SCCNC(C)=O", "values": [{"measurement": "survivor count", "setting": "dose: 200.0 mg/kg/injection, schedule: Q01DX Z (ip), vehicle: saline", "result": "3 of 6"}, {"measurement": "survivor count", "setting": "dose: 300.0 mg/kg/injection, schedule: Q01DX001 (ip), vehicle: saline", "result": "0 of 6 and 2 of 6"}, {"measurement": "survivor count", "setting": "dose: 450.0 mg/kg/injection, schedule: Q01DX001 (ip), vehicle: saline", "result": "0 of 6"}]}
{"smiles": "CN(C)c1cc2c3c(c1)CCCN3CCC2", "values": [{"measurement": "survivor count", "setting": "dose: 25.0 mg/kg/injection, schedule: Q01DX001 (ip), vehicle: saline", "result": "1 of 6"}]}
{"smiles": "CCCCCCOC(N)=O", "values": [{"measurement": "survivor count", "setting": "dose: 400.0 mg/kg/injection, schedule: Q04DX003 (ip), vehicle: Klucel (hydroxypropylcellulose) (HPC)", "result": "3 of 6"}]}
{"smiles": "CS(C)(C)N1C(=O)c2ccccc2C1=O", "values": [{"measurement": "survivor count", "setting": "dose: 350.0 mg/kg/injection, schedule: Q01DX009 (ip), vehicle: Klucel (hydroxypropylcellulose) (HPC)", "result": "0 of 6"}]}
{"smiles": "OC(c1ccccc1)(c1ccccc1)c1ccccc1", "values": [{"measurement": "T/C", "setting": "dose: 200.0 mg/kg/injection, schedule: Q04DX002 (ip), vehicle: Klucel (hydroxypropylcellulose) (HPC)", "result": "130 % of control"}]}
{"smiles": "COC(=O)/C=C/C(=O)O", "values": [{"measurement": "survivor count", "setting": "dose: 150.0 mg/kg/injection, schedule: Q01DX001 (ip), vehicle: carboxymethylcellulose (CMC)", "result": "5 of 6"}, {"measurement": "survivor count", "setting": "dose: 300.0 mg/kg/injection, schedule: Q01DX001 (ip), vehicle: carboxymethylcellulose (CMC)", "result": "5 of 6"}]}
{"smiles": "CC(=O)Nc1ccc2c(c1)Cc1cc(N=Cc3ccccn3)ccc1-2", "values": [{"measurement": "survivor count", "setting": "dose: 200.0 mg/kg/injection, schedule: Q04DX003 (ip), vehicle: Klucel (hydroxypropylcellulose) (HPC)", "result": "6 of 6"}]}
{"smiles": "BrC(c1ccccc1)C(Br)[n+]1ccccc1", "note": "(centres undefined)", "values": [{"measurement": "survivor count", "setting": "dose: 150.0 mg/kg/injection, schedule: Q01DX001 (ip), vehicle: other", "result": "0 of 6"}, {"measurement": "survivor count", "setting": "dose: 300.0 mg/kg/injection, schedule: Q01DX001 (ip), vehicle: other", "result": "1 of 6"}]}
{"smiles": "CC(=O)/C=C(\\C)OB(F)F", "values": [{"measurement": "survivor count", "setting": "dose: 200.0 mg/kg/injection, schedule: Q01DX001 (ip), vehicle: saline", "result": "0 of 5"}, {"measurement": "survivor count", "setting": "dose: 400.0 mg/kg/injection, schedule: Q01DX001 (ip), vehicle: saline", "result": "0 of 6"}]}
